These are yes or no findings as the source states them, for the method shown. Binding seen in cells or lysates may run through a third protein. Some entries that bind do so weakly or less than the wild type.
Target: estrogen receptor alpha (human (endogenous in MCF-7)) (UniProt P03372)
Experiment: co-IP; IP followed by Western blotting from MCF-7 cells, cultured alone or co-cultured with conditioned KG-1 macrophages, also under tamoxifen treatment; which protein was precipitated is not given

Chains of the proteins cited; added tags and fusions are not shown.
UniProt P03372: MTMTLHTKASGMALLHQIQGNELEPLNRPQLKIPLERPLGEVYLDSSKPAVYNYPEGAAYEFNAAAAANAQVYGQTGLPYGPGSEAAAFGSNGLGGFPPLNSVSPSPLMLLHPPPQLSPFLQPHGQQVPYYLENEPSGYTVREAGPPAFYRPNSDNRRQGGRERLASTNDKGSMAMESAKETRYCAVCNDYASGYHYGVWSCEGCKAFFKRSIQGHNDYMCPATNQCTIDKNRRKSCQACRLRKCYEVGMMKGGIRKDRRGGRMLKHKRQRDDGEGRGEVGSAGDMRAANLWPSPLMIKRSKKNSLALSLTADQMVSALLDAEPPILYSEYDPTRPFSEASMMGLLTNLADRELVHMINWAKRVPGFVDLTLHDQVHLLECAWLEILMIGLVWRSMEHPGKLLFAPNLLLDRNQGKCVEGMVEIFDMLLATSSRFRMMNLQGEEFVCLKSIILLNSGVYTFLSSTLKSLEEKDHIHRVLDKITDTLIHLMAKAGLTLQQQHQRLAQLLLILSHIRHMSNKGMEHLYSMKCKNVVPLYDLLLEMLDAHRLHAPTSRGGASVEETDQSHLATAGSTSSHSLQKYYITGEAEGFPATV
UniProt Q04206: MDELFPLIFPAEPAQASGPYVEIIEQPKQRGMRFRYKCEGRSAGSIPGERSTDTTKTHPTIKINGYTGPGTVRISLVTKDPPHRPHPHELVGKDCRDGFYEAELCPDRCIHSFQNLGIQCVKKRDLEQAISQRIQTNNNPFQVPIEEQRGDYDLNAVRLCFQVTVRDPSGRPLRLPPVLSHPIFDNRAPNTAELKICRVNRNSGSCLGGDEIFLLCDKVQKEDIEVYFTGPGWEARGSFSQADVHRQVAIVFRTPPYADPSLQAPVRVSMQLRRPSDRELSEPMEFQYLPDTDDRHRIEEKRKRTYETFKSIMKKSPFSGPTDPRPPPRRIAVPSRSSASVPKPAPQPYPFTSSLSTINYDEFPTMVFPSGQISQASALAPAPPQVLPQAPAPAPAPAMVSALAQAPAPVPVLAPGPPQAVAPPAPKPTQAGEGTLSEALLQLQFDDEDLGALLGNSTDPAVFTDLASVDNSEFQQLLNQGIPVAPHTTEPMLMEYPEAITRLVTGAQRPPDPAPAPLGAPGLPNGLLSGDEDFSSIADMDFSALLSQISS
UniProt P40763: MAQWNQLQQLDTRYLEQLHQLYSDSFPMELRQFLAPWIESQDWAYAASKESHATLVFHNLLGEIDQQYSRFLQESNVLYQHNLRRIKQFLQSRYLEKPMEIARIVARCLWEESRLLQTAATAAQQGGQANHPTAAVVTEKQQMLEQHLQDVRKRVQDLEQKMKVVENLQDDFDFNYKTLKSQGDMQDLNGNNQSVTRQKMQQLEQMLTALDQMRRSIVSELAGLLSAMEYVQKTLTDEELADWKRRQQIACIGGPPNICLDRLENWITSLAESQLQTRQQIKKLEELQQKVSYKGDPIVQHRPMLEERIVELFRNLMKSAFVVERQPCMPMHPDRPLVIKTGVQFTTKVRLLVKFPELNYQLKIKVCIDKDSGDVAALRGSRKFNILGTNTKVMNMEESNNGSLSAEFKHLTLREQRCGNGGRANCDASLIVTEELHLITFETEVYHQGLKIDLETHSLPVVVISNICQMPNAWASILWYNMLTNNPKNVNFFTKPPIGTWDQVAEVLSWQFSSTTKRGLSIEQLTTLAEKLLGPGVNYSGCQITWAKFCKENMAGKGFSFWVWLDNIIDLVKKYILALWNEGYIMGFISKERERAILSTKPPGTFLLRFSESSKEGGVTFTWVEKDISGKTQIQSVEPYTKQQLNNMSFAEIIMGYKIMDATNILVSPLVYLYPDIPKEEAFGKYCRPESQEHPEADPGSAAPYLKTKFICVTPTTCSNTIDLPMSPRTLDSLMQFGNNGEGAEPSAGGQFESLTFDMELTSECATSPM

Substance | binding
NF-κB subunit p65 (from UniProt Q04206 1-551) | binds
signal transducer and activator of transcription 3 (from UniProt P40763 1-770) | binds

— paper PMC6406935
